Test results taken from US6184422A, “Cyclohexanediol derivatives” (priority 1998, dated 2001).

What was measured:
[1] = Calcium Liability (Tolerance Test in Mice); conditions: Table I; relative to calcitriol; HTDsc mouse and VDR activation
Source text: 1. Calcium Liability (Tolerance Test in Mice)
This test gives a global picture of calcemic liability. Profound changes in calcium homeostasis strongly affect the weight development of the animals. This parameter was used as a primary test for tolerance. […] Body weight was registered just before and at the end of a 5 day treatment period.

[2] = test system: epidermal thickening (acanthosis) in hairless mice; test: The Mouse Model: epidermal thickening (acanthosis) in hairless mice; conditions: Table II, oral, relative to calcitriol
[3] = test system: epidermal proliferation in minipigs; conditions: oral, TI relative to calcitriol
Procedure: Orally administered vitamin D analogs can lead to epidermal proliferation in minipigs. This skin effect is considered as indicative for an antipsoriatic potential of vitamin D analogs. […] The pigs were daily observed as to adverse effects such as behavior, mobility, stool. At day seven bromodeoxyuridine (4 mg/kg) was injected intravenously into the treated pigs and 2 hours later skin biopsies (6 mm diameter) and blood were taken for analysis. The skin biopsies were fixed in formalin, and paraffin sections were prepared using standard procedures. Using standard immuno-histochemical techniques, cells in the S-phase (DNA synthesis phase) were labelled by the binding of a specific monoclonal antibody against the thymidine analogue bromodeoxyuridine. The number of labelled epidermal cells per unit of length along the surface was taken as a measure of epidermal proliferative activity (labelings index LI). Clinical chemistry was performed using Cobas Mira.
*The effective dose is the dose that increases the normal LI at least 50%

| Structure (SMILES) | TI shift (ratio HTD/VDR of test compound divided by ratio HTD/VDR of calcitriol) [1] | TI shift (ratio HTD/ED50 for test compound divided by ratio HTD/ED50 for calcitriol) [2] | Rel. shift [3] |
| --- | --- | --- | --- |
| CC(C)(O)C#CCC(C)(C)CCC/C=C/C=C1C[C@@H](O)C[C@H](O)C1 [K, (10E)-(3R,5R)-12-(3,5-dihydroxy-cyclohexylidene)-6,6-dimethyl-2-methyl-dodec-10-en-3-yn-2-ol] | > 127 | – | – |
| CC(C)(C/C=C/C(O)(C(F)(F)F)C(F)(F)F)CCC/C=C/C=C1C[C@@H](O)C[C@H](O)C1 [D, (1R,3R)-5-[(2E,9E)-12,12,12-trifluoro-11-trifluoromethyl-11-hydroxy-7,7-dimethyl-dodeca-2,9-dienylidene]-cyclohexane-1,3-diol] | 100 | 50 | – |
| C=C1/C(=C\C=C\CCCC(C)(C)C/C=C/C(O)(C(F)(F)F)C(F)(F)F)C[C@@H](O)C[C@@H]1O [C, (Z)-(1R,3S)-5-((2E,9E)-12,12,12-trifluoro-11-trifluoromethyl-11-hydroxy-7,7-dimethyl-dodec-2,9-dienylidene)-4-methylene-cyclohexane-1,3-diol] | 278 | 67 | – |
| C=C1/C(=C\C=C\CCCC(C)(C)CCCC(O)(C(F)(F)F)C(F)(F)F)C[C@@H](O)C[C@@H]1O [F, (Z)-(1R,3S)-5-[(2E)-12,12,12-trifluoro-11-hydroxy-7,7-dimethyl-11-trifluoromethyl-dodec-2-enylidene]-4-methylene-cyclohexane-1,3-diol] | 111 | 200 | > 35 |
| C=C1/C(=C\C=C2/CCC[C@]3(C)[C@@H]([C@H](C)CCCC(C)(C)O)CC[C@@H]23)C[C@@H](O)C[C@@H]1O [Calcitriol, reference compound] | – | – | 1 |
| CC(C)(CC#CC(O)(C(F)(F)F)C(F)(F)F)CCC/C=C/C=C1C[C@@H](O)C[C@H](O)C1 [I, (E)-(1R,3R)-5-[12,12,12-trifluoro-11-hydroxy-7,7-dimethyl-11-trifluoromethyl-dodec-2-en-9-ynylidene]-cyclohexane-1,3-diol] | 144 | 63 | > 42 |
| C=C1/C(=C\C=C\CCCC(C)(C)CCCC(C)(C)O)C[C@@H](O)C[C@@H]1O [G, (Z)-(1R,3S)-5-[(E)-11-hydroxy-7,7,11-trimethyl-dodec-2-enylidene]-4-methylene-cyclohexane-1,3-diol] | 250 | 167 | – |
| CC(C)(C/C=C\C(O)(C(F)(F)F)C(F)(F)F)CCC/C=C/C=C1C[C@@H](O)C[C@H](O)C1 [A, (1R,3R)-5-[(2E,9Z)-12,12,12-trifluoro-11-hydroxy-7,7-dimethyl-11-trifluoromethyl-dodeca-2,9-dienylidene)-cyclohexane-1,3-diol] | 78 | 67 | > 350 |
| CC(C)(O)CCCC(C)(C)CCC/C=C/C=C1C[C@@H](O)C[C@H](O)C1 [H, (2E)-(1R,3R)-5-(11-hydroxy-7,7,11-trimethyl-dodeca-2-enylidene)-cyclohexane-1,3-diol] | 100 | – | – |
| CC(C)(CCC/C=C/C=C1C[C@@H](O)C[C@H](O)C1)CCCC(O)(C(F)(F)F)C(F)(F)F [Compound E, (1R,3R)-5-[(2E)-12,12,12-trifluoro-11-hydroxy-7,7-dimethyl-11-trifluoromethyl-dodec-2-enylidene)-cyclohexane-1,3-diol] | 83 | 100 | – |
| C=C1/C(=C\C=C\CCCC(C)(C)C/C=C\C(O)(C(F)(F)F)C(F)(F)F)C[C@@H](O)C[C@@H]1O [B, (Z)-(1R,3S)-4-methylene-5-[(2E,9Z)-12,12,12-trifluoro-11-hydroxy-7,7-dimethyl-11-trifluoromethyl-dodeca-2,9-dienylidene]-cyclohexane-1,3-diol] | 333 | 67 | > 14 |
| C=C1/C(=C\C=C\CCCC(C)(C)CC#CC(O)(C(F)(F)F)C(F)(F)F)C[C@@H](O)C[C@@H]1O [J, (Z)-(1R,3S)-4-methylene-5-[(E)-12,12,12-trifluoro-11-hydroxy-7,7-dimethyl-11-trifluoromethyl-dodec-2-en-9-ynylidene]-cyclohexane-1,3-diol] | 361 | 50 | > 21 |
